# Test results: patent EP2703005A1, “Inhibitors of alpha6 Integrin/E-Cadherin Complex” (Università Degli Studi Di Torino, priority 2012, dated 2014)
# Amino acid sequences for entries named in this document (tags omitted). A change or cut given only in a name is not applied to a line headed by its entry.
# UniProt P16144: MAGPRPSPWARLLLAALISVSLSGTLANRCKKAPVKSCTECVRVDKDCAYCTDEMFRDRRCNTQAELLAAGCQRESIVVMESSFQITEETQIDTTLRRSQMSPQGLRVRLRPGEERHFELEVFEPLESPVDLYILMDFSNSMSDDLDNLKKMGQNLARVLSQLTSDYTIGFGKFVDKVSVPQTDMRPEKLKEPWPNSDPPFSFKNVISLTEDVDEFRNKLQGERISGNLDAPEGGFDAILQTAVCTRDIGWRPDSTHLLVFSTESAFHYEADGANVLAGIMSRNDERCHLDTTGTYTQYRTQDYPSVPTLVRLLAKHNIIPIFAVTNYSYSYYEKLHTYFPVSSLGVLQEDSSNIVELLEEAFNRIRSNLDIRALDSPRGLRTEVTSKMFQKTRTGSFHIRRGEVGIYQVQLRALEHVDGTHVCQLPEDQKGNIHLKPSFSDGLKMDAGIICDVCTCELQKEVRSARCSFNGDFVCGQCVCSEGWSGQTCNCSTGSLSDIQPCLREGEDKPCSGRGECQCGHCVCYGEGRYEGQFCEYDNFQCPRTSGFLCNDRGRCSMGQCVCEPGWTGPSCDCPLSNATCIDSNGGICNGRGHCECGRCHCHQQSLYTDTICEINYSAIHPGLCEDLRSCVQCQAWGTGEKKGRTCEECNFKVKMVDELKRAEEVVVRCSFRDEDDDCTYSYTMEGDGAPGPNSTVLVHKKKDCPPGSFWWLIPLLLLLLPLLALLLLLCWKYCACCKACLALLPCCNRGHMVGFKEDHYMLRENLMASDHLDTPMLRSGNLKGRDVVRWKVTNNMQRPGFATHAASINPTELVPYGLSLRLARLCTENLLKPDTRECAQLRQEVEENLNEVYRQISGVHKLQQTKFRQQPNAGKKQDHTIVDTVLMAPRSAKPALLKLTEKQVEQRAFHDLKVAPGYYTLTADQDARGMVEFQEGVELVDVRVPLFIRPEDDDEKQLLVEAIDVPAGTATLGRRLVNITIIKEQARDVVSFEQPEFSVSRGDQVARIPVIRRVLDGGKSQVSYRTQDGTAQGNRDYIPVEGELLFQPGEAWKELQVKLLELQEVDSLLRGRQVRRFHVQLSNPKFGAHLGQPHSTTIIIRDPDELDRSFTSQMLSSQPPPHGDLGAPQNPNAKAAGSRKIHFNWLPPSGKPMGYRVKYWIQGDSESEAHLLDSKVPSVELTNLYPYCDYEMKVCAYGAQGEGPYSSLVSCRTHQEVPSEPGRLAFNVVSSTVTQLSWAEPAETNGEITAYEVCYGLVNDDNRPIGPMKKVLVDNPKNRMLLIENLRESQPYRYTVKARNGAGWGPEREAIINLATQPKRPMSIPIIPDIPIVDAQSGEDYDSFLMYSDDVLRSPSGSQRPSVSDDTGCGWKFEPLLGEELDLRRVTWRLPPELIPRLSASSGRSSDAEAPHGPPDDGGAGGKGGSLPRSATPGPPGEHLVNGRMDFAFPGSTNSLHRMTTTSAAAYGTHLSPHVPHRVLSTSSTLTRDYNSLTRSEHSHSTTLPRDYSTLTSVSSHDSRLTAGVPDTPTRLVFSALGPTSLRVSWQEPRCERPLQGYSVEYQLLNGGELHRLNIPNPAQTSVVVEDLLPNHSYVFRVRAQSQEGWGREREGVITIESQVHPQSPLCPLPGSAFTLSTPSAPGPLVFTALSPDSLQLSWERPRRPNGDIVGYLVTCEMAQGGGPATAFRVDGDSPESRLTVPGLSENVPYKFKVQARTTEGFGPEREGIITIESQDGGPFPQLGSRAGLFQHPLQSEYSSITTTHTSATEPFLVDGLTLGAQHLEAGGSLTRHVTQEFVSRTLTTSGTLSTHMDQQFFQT
# No constants are given. Whether binding was seen depends on the method and setting. Some entries that bind do so weakly or less than the wild type.
# What was measured:
# [1] = biological target: α6β4 integrin from human liver metastases (human) (UniProt P16144); test: peptide affinity column fractions, phage binding and ELISA (Figure 8C, D)
# [2] = biological target: α6β4 integrin from human liver metastases (human) (UniProt P16144); test: peptide affinity column, elution with free peptide, ELISA for integrin subunits
binder,measurement,setting,value
CGIYRLRSC [… peptide (synthetic)],binding,[1],binds
same,binding,[2],binds
